Among the data in patent US20240025959A1 are binding values, retold here.

Chains of the proteins cited; added tags and fusions are not shown. Lines headed by an entry give the natural chain unless they say otherwise; changes in a name come on top.
UniProt Q96P20: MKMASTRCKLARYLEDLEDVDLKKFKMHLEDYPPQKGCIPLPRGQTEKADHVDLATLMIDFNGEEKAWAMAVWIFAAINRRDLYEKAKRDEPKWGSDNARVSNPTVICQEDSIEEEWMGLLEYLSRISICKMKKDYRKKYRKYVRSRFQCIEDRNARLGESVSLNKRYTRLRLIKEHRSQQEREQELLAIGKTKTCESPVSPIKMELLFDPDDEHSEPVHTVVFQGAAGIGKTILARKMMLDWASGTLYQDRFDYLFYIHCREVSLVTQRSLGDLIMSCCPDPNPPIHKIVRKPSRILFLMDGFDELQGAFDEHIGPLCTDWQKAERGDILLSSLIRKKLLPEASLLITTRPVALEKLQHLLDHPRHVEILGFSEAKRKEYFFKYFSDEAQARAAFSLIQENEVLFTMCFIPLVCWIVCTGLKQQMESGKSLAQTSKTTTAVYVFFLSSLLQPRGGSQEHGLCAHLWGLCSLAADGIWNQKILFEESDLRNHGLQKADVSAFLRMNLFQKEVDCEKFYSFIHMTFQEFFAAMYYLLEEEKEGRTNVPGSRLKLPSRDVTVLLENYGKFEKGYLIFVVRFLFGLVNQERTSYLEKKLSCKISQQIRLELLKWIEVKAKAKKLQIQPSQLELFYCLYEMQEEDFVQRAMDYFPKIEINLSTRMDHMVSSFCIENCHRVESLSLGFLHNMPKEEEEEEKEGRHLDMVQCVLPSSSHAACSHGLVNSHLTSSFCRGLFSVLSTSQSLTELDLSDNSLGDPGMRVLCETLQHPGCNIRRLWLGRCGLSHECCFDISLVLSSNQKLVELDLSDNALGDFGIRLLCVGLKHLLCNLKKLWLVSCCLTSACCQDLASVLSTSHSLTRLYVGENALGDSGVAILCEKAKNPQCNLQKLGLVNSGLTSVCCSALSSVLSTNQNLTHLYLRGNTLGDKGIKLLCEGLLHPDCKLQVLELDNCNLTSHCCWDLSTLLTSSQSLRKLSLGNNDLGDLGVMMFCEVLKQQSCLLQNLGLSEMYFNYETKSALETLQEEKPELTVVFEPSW

The target in this test is T1, Beclin 2 (human, full length) (human) (UniProt A8MW95).
T1 sequence: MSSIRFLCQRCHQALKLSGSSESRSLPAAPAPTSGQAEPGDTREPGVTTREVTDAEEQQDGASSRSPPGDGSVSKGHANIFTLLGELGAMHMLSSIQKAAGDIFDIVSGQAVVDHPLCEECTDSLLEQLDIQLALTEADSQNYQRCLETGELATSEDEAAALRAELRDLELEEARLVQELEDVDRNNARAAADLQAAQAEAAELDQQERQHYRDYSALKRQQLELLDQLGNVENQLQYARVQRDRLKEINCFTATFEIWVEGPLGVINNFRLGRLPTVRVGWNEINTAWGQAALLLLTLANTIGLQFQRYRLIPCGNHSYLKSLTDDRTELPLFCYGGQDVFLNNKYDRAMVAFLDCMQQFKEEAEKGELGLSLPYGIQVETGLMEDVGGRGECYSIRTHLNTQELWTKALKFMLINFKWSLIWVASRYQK
The test is described as follows: co-IP with anti-Flag beads; HEK293T cells co-transfected with Flag-Beclin 2 and HA-tagged NLRP3 domain truncations (FIG. 25G).

These are yes or no findings as the source states them, for the method shown. Binding seen in cells or lysates may run through a third protein. Binding calls can cover weak binding; strength is not graded here.

For the substance “NLRP3-LRR (LRR domain of NLRP3, residues 560-894) (from UniProt Q96P20)”, the binding entry is on record as “binds”.
